Values from PubChem BioAssay AID1259254 (NCATS, 2017).
The whole screen tested about 59,000 reagents; below is a random part of them. About 1,550 of all reagents (2.6%) were called active. 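G2 share is only a proxy for re-replication; each gene was hit by three separate siRNAs, and active genes were retested.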 Raw values are not corrected between plates. Reagents against one gene are numbered here. No sequences are given here. The record does not give: the amount of reagent.

- Assay: 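Genome-wide screen for genes that prevent DNA re-replication in cancer cells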 (primary screen)
- Cell system: human HCT116 colorectal cancer cells
- Reagent: single siRNA against human genes
- Duration: 3 days
- Measurement: 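Nuclei stained with Hoechst and imaged; cell-cycle phase assigned by DNA content; G2 share scaled per plate, non-targeting siRNA 0%, GMNN siRNA 100%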
- Scale: G2 robust z-score and G2 cells, % of GMNN control: higher = more G2 cells, more excess DNA replication; raw share of cells in G2: higher = larger share of cells with G2 DNA content
- Active means: 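Active siRNAs have a G2 robust z of 5 or more median absolute deviations over the median, which in these data means about 38% or higher of GMNN control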

no.	gene	reagent	G2 robust z-score	G2 cells, % of GMNN control	raw share of cells in G2 (%)	Call
1	PPARD (peroxisome proliferator activated receptor delta)	1	5.96	44.9	20.8	active
2	PPARD (peroxisome proliferator activated receptor delta)	2	0.0374	3.23	5.65	inactive
3	PPARD (peroxisome proliferator activated receptor delta)	3	-0.636	-1.51	3.46	inactive
4	B3GALT2 (beta-1,3-galactosyltransferase 2)	1	-0.339	0.58	5.47	inactive
5	B3GALT2 (beta-1,3-galactosyltransferase 2)	2	1.94	16.6	12.1	inactive
6	B3GALT2 (beta-1,3-galactosyltransferase 2)	3	-0.898	-3.35	3.51	inactive
7	B4GALT5 (beta-1,4-galactosyltransferase 5)	1	0.324	5.25	6.59	inactive
8	B4GALT5 (beta-1,4-galactosyltransferase 5)	2	0.119	3.8	6.6	inactive
9	B4GALT5 (beta-1,4-galactosyltransferase 5)	3	2.7	21.9	14.5	inactive
10	OTUD3 (OTU deubiquitinase 3)	1	1.79	15.5	11.1	inactive
11	OTUD3 (OTU deubiquitinase 3)	2	-0.58	-1.11	3.68	inactive
12	OTUD3 (OTU deubiquitinase 3)	3	2.28	19	10.3	inactive
13	PHF13 (PHD finger protein 13)	1	2.28	19	10.2	inactive
14	PHF13 (PHD finger protein 13)	2	0.313	5.17	4.51	inactive
15	PHF13 (PHD finger protein 13)	3	-0.00244	2.95	4.1	inactive
16	EGLN1 (egl-9 family hypoxia inducible factor 1)	1	-1.41	-6.95	2.8	inactive
17	EGLN1 (egl-9 family hypoxia inducible factor 1)	2	0.797	8.57	7.09	inactive
18	EGLN1 (egl-9 family hypoxia inducible factor 1)	3	-0.646	-1.58	3.66	inactive
19	OR6C65 (olfactory receptor family 6 subfamily C member 65)	1	2.53	20.8	11.4	inactive
20	OR6C65 (olfactory receptor family 6 subfamily C member 65)	2	-0.681	-1.82	2.79	inactive
21	OR6C65 (olfactory receptor family 6 subfamily C member 65)	3	-0.474	-0.368	4.64	inactive
22	FGL1 (fibrinogen like 1)	1	0.336	5.33	7.17	inactive
23	FGL1 (fibrinogen like 1)	2	-0.277	1.02	5.65	inactive
24	FGL1 (fibrinogen like 1)	3	-0.381	0.29	3.76	inactive
25	DDHD1 (DDHD domain containing 1)	1	-0.242	1.27	5.96	inactive
26	DDHD1 (DDHD domain containing 1)	2	-0.756	-2.35	3.92	inactive
27	DDHD1 (DDHD domain containing 1)	3	-0.467	-0.316	4.08	inactive
28	TRIM32 (tripartite motif containing 32)	1	0.0653	3.43	7.74	inactive
29	TRIM32 (tripartite motif containing 32)	2	-0.186	1.66	4.71	inactive
30	TRIM32 (tripartite motif containing 32)	3	-0.426	-0.0293	3.86	inactive
31	ARHGEF17 (Rho guanine nucleotide exchange factor 17)	1	-0.296	0.882	5.73	inactive
32	ARHGEF17 (Rho guanine nucleotide exchange factor 17)	2	-0.546	-0.871	3.58	inactive
33	ARHGEF17 (Rho guanine nucleotide exchange factor 17)	3	3.09	24.7	12.4	inactive
34	SLC6A5	1	-0.553	-0.923	4.94	inactive
35	SLC6A5	2	-0.0958	2.29	5.58	inactive
36	SLC6A5	3	3.55	27.9	14.7	inactive
37	CPTP (ceramide-1-phosphate transfer protein)	1	-0.415	0.0442	4.46	inactive
38	CPTP (ceramide-1-phosphate transfer protein)	2	-0.734	-2.2	3.34	inactive
39	CPTP (ceramide-1-phosphate transfer protein)	3	1.31	12.2	5.71	inactive
40	LINC00469 (long independently transcribed non-coding RNA 469)	1	0.712	7.98	5.69	inactive
41	LINC00469 (long independently transcribed non-coding RNA 469)	2	-0.74	-2.24	2.82	inactive
42	LINC00469 (long independently transcribed non-coding RNA 469)	3	0.628	7.39	5.9	inactive
43	SLC24A2	1	0.49	6.41	9.07	inactive
44	SLC24A2	2	2.03	17.3	9.92	inactive
45	SLC24A2	3	-0.473	-0.358	3.87	inactive
46	GPR132 (G protein-coupled receptor 132)	1	-1.19	-5.37	3.92	inactive
47	GPR132 (G protein-coupled receptor 132)	2	0.306	5.12	6.31	inactive
48	GPR132 (G protein-coupled receptor 132)	3	6.93	51.7	19.1	active
49	KRT10-AS1 (KRT10 antisense RNA 1)	1	-0.628	-1.45	3.34	inactive
50	KRT10-AS1 (KRT10 antisense RNA 1)	2	2.6	21.3	9.49	inactive
51	KRT10-AS1 (KRT10 antisense RNA 1)	3	2.44	20.2	10.1	inactive
52	ARRDC1 (arrestin domain containing 1)	1	-0.478	-0.393	3.92	inactive
53	ARRDC1 (arrestin domain containing 1)	2	1.31	12.2	6.83	inactive
54	ARRDC1 (arrestin domain containing 1)	3	0.0575	3.37	3.99	inactive
55	NKIRAS1 (NFKB inhibitor interacting Ras like 1)	1	-0.997	-4.05	2.67	inactive
56	NKIRAS1 (NFKB inhibitor interacting Ras like 1)	2	-1.48	-7.44	2.79	inactive
57	NKIRAS1 (NFKB inhibitor interacting Ras like 1)	3	-1.01	-4.14	2.81	inactive
58	CEP192 (centrosomal protein 192)	1	2.9	23.4	10.6	inactive
59	CEP192 (centrosomal protein 192)	2	1.58	14.1	9.94	inactive
60	CEP192 (centrosomal protein 192)	3	3.22	25.7	14.8	inactive
61	GTF2F2 (general transcription factor IIF subunit 2)	1	-0.714	-2.06	3.45	inactive
62	GTF2F2 (general transcription factor IIF subunit 2)	2	-0.0928	2.31	6.56	inactive
63	GTF2F2 (general transcription factor IIF subunit 2)	3	-0.905	-3.4	3.81	inactive
64	CLTRN (collectrin, amino acid transport regulator)	1	-0.477	-0.392	4.19	inactive
65	CLTRN (collectrin, amino acid transport regulator)	2	-0.444	-0.156	4.38	inactive
66	CLTRN (collectrin, amino acid transport regulator)	3	-0.592	-1.2	2.65	inactive
67	ZNF608 (zinc finger protein 608)	1	-0.778	-2.51	3.36	inactive
68	ZNF608 (zinc finger protein 608)	2	-0.494	-0.506	4.22	inactive
69	ZNF608 (zinc finger protein 608)	3	0.299	5.07	4.64	inactive

Just “G2 cells, % of GMNN control” (5 entries from above):
OTUD3 (OTU deubiquitinase 3) #3	19
PHF13 (PHD finger protein 13) #1	19
PHF13 (PHD finger protein 13) #2	5.17
PHF13 (PHD finger protein 13) #3	2.95
EGLN1 (egl-9 family hypoxia inducible factor 1) #1	-6.95
